Data on five molecules can be found in patent EP1662255A2.

By UniProt entry, the sequences of proteins in these tests, tags left out. Residues count along the entry.
UniProt P29994: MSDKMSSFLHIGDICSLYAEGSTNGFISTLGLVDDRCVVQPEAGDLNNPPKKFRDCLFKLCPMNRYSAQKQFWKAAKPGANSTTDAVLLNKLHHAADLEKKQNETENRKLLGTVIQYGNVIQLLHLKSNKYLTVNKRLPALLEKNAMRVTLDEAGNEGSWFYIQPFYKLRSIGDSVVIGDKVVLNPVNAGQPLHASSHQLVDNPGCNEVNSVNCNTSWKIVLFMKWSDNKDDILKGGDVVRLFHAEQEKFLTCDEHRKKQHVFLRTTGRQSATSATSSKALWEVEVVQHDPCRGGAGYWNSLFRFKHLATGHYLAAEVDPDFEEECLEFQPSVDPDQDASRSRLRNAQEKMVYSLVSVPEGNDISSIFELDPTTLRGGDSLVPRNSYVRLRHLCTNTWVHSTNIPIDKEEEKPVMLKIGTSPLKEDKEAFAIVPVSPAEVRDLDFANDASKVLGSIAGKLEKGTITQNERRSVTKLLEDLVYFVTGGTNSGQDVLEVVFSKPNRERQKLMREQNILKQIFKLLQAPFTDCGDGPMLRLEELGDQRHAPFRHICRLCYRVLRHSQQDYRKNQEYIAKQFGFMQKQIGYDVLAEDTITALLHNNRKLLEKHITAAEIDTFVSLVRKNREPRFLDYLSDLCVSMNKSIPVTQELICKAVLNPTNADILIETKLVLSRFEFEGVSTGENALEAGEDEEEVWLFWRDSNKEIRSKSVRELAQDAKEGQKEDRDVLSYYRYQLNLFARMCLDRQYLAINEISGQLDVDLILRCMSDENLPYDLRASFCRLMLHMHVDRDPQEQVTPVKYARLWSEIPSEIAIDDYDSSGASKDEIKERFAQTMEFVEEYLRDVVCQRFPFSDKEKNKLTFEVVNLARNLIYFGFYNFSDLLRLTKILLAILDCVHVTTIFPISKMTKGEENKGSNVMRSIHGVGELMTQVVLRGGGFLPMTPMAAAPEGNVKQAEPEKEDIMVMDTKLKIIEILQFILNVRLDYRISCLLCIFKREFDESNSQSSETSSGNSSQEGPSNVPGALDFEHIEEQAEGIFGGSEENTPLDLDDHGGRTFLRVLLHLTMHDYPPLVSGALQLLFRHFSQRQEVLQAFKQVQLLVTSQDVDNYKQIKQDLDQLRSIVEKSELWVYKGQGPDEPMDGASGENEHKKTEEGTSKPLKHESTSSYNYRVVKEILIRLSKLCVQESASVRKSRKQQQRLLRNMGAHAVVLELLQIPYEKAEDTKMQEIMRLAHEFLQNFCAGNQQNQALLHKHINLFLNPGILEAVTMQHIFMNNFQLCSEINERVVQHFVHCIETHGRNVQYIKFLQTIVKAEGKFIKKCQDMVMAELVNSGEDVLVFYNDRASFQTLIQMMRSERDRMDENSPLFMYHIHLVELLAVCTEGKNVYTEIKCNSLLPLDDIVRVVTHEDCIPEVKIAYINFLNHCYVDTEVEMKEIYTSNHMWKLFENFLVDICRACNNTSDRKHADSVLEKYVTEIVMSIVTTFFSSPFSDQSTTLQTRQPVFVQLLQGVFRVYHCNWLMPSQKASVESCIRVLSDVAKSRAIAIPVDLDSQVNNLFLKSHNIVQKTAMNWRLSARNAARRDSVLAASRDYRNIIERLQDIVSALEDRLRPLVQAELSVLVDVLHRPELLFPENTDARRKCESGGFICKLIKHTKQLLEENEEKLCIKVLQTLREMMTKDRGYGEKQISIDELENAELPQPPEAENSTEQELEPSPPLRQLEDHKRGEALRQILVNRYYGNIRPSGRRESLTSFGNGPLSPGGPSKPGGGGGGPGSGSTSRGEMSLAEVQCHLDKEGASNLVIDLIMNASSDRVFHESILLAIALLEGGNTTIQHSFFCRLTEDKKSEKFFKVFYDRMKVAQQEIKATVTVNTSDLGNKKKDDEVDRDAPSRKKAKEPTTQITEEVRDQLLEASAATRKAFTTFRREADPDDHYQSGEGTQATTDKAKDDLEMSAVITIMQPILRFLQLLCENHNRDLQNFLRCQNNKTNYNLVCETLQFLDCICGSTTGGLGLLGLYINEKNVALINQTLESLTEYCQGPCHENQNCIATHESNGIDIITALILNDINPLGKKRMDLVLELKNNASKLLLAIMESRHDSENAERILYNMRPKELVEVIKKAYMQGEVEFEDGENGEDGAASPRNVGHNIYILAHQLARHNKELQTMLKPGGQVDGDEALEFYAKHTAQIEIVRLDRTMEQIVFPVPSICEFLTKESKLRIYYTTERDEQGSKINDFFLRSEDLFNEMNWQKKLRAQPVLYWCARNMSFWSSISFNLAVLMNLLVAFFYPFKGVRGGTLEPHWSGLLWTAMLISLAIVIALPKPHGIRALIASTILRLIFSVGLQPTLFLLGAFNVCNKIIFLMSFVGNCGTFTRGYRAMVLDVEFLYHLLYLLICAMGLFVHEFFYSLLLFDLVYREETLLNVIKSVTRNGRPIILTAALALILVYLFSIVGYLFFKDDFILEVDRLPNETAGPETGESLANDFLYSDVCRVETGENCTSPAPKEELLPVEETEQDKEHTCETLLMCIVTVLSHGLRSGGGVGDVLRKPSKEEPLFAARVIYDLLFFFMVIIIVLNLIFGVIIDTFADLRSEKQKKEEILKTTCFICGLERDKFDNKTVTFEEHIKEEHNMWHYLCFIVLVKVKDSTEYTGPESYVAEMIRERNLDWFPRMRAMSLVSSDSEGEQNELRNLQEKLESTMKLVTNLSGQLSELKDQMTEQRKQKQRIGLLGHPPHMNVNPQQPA
UniProt P23385, residues 19-1199: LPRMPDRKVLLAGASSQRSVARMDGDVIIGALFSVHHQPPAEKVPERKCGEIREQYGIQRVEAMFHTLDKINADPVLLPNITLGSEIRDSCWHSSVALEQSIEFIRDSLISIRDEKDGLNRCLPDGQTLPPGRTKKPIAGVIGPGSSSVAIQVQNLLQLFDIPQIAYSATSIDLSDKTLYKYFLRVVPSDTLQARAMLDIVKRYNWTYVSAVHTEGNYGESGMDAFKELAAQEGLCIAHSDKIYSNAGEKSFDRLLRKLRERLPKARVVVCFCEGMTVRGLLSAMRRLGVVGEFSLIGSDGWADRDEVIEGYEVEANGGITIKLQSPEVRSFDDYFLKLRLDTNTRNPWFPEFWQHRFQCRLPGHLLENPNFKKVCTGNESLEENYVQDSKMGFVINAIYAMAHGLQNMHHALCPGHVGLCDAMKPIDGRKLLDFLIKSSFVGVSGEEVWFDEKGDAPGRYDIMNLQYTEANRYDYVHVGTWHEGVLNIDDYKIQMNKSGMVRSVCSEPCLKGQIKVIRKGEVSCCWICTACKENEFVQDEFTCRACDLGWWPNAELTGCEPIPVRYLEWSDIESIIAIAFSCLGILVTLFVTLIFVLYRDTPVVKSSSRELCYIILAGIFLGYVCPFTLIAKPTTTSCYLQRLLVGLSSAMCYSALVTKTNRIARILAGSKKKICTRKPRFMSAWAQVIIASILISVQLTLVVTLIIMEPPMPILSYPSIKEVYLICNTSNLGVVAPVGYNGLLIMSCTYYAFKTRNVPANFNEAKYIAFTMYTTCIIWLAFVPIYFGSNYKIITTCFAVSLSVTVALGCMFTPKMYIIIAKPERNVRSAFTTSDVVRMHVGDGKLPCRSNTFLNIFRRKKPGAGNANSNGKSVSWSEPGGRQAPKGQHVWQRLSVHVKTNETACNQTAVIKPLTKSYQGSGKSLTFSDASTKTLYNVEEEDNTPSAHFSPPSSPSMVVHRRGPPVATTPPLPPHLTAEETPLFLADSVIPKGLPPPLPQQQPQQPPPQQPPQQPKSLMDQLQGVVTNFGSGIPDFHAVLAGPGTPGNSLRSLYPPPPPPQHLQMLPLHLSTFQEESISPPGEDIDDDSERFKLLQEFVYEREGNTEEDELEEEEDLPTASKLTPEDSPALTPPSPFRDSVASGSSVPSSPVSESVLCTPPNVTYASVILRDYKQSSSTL
UniProt Q3UVX5, residues 19-1203: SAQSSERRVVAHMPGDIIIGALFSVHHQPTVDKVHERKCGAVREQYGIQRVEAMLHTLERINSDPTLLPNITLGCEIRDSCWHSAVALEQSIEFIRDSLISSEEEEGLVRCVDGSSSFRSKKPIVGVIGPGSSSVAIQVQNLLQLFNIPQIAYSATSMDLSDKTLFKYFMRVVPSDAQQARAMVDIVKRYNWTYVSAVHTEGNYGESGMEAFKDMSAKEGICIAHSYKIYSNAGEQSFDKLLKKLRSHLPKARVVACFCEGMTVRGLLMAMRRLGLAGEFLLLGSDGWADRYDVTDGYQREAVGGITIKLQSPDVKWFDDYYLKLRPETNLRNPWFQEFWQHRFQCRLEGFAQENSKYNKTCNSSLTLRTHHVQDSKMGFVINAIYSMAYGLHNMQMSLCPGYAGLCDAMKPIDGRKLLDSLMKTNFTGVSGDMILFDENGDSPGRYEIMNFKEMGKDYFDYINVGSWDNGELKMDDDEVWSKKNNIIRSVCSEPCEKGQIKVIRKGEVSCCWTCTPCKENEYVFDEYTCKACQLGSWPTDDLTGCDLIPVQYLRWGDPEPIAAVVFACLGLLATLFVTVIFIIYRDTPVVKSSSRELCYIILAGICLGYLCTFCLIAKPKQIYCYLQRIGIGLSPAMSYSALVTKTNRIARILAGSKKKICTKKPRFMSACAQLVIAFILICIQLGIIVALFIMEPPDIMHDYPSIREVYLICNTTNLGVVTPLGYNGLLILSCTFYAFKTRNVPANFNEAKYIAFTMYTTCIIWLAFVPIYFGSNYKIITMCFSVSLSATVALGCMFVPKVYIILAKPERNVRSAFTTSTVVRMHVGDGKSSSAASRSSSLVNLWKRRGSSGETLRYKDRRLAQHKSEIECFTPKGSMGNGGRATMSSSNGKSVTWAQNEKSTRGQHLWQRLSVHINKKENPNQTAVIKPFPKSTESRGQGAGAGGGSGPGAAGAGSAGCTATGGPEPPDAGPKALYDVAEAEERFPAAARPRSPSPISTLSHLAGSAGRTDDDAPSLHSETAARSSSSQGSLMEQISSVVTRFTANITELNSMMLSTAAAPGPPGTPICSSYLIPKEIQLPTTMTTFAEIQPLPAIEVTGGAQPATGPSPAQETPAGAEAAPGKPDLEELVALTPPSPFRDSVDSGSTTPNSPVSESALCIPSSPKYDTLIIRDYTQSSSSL

No constants are given. Whether binding was seen depends on the method and setting. In cells and extracts the contact can be indirect. Some results given as binding are weak or reduced against the parent protein; the word gives no strength.

Assay [1] concerns the target inositol trisphosphate receptor (rat or mouse) (UniProt P29994). The assay can be described thus: co-immunoprecipitation from cerebellum (CHAPS extract).
Assay [2] shares this target. The assay can be described thus: co-immunoprecipitation from cerebellum.
The target of assay [3] is mGluR1α (native, rat cerebellum extracts) (rat) (UniProt P23385). The assay can be described thus: co-immunoprecipitation from adult rat cerebellum.
Assay [4] addresses T1, Homer 3 (native, rat brain extracts) (rat) (UniProt Q9Z2X5).
T1 sequence (looked up): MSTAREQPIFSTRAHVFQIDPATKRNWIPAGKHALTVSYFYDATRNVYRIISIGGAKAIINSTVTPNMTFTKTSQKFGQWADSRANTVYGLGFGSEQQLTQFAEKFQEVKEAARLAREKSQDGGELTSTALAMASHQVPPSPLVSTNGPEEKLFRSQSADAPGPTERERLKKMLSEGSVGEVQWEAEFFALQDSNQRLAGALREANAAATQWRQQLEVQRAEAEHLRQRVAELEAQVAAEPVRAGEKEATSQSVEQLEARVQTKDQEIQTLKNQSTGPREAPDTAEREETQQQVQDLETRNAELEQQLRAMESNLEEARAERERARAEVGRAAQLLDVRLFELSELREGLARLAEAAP
The assay can be described thus: co-immunoprecipitation from cerebellum.

Assay [5] concerns the target mGluR5 (native, mouse forebrain extracts) (mouse) (UniProt Q3UVX5). The assay can be described thus: co-immunoprecipitation from wild type mouse forebrain.
For assay [6], the target named is mGluR5 (native, mouse forebrain extracts) (mouse), Q3UVX5. The assay can be described thus: co-immunoprecipitation from mouse forebrain; similar in wild type and Homer 1a transgenic mice. The note with it: remark: other sources report otherwise.

B1: Homer 3 (native, rat brain extracts) (protein, UniProt Q9Z2X5 1-358, looked up)
chain: MSTAREQPIFSTRAHVFQIDPATKRNWIPAGKHALTVSYFYDATRNVYRIISIGGAKAIINSTVTPNMTFTKTSQKFGQWADSRANTVYGLGFGSEQQLTQFAEKFQEVKEAARLAREKSQDGGELTSTALAMASHQVPPSPLVSTNGPEEKLFRSQSADAPGPTERERLKKMLSEGSVGEVQWEAEFFALQDSNQRLAGALREANAAATQWRQQLEVQRAEAEHLRQRVAELEAQVAAEPVRAGEKEATSQSVEQLEARVQTKDQEIQTLKNQSTGPREAPDTAEREETQQQVQDLETRNAELEQQLRAMESNLEEARAERERARAEVGRAAQLLDVRLFELSELREGLARLAEAAP
On to B1, for which the binding entry in assay [1], in assay [2] and in assay [3] was “binds” throughout.

B2: Homer 1b/c (native, rat brain extracts) (protein, UniProt Q9Z214 2-366, looked up)
chain: GEQPIFSTRAHVFQIDPNTKKNWVPTSKHAVTVSYFYDSTRNVYRIISLDGSKAIINSTITPNMTFTKTSQKFGQWADSRANTVYGLGFSSEHHLSKFAEKFQEFKEAARLAKEKSQEKMELTSTPSQESAGGDLQSPLTPESINGTDDERTPDVTQNSEPRAEPAQNALPFSHSAGDRTQGLSHASSAISKHWEAELATLKGNNAKLTAALLESTANVKQWKQQLAAYQEEAERLHKRVTELECVSSQANAVHSHKTELSQTVQELEETLKVKEEEIERLKQEIDNARELQEQRDSLTQKLQEVEIRNKDLEGQLSELEQRLEKSQSEQDAFRSNLKTLLEILDGKIFELTELRDNLAKLLECS
In the case of B2, the binding entry in assay [1], in assay [2], in assay [4] and in assay [3] was “binds” throughout.

B3: Homer 1b/c (native, mouse forebrain extracts) (protein, UniProt Q9Z2Y3 2-366, looked up)
chain: GEQPIFSTRAHVFQIDPNTKKNWVPTSKHAVTVSYFYDSTRNVYRIISLDGSKAIINSTITPNMTFTKTSQKFGQWADSRANTVYGLGFSSEHHLSKFAEKFQEFKEAARLAKEKSQEKMELTSTPSQESAGGDLQSPLTPESINGTDDERTPDVTQNSEPRAEPTQNALPFPHSAGDRTQALSHASSAISKHWEAELATLKGNNAKLTAALLESTANVKQWKQQLAAYQEEAERLHKRVTELECVSSQANAVHSHKTELNQTVQELEETLKVKEEEIERLKQEIDNARELQEQRDSLTQKLQEVEIRNKDLEGQLSDLEQRLEKSQNEQEAFRSNLKTLLEILDGKIFELTELRDNLAKLLECS
On to B3, for which the binding result in assay [5] is on record as “binds”.

B4: Homer 2a/b (native, rat brain extracts) (protein, UniProt O88801 1-354, looked up)
chain: MGEQPIFTTRAHVFQIDPSTKKNWVPASKQAVTVSYFYDVTRNSYRIISVDGAKVIINSTITPNMTFTKTSQKFGQWADSRANTVFGLGFSSEQQLTKFAEKFQEVREAARLARDKSQEKIETSSNHSQESGCETPSSTQASSVNGTDDEKASHASPADTHLKSENDKLKIALTQSAANVKKWEIELQTLRESNARLTTALQESAASVEQWKRQFSICRDENDRLRSKIEELEEQCGEINREKEKNTQLKRRIEELESEVREKEMELKDLRKQSEIIPQLMSECEYVSEKLEAAERDNQNLEDKVRSLKTDIEESKYRQRHLKGELKSFLEVLDGKIDDLHDFRRGLSKLGTDN
Consider B4, for which the binding entry in assay [1], in assay [2] and in assay [3] was “binds” throughout.

B5: Homer 2a/b (native, mouse forebrain extracts), Q9QWW1 1-354 (protein, UniProt Q9QWW1 1-354, looked up)
chain: MGEQPIFTTRAHVFQIDPSTKKNWVPASKQAVTVSYFYDVTRNSYRIISVDGAKVIINSTITPNMTFTKTSQKFGQWADSRANTVFGLGFSSELQLTKFAEKFQEVREAARLARDKSQEKTETSSNHSQESGCETPSSTQASSVNGTDDEKASHASPADTHLKSENDKLKIALTQSAANVKKWEMELQTLRESNARLTTALQESAASVEQWKRQFSICRDENDRLRSKIEELEEQCSEINREKEKNTQLKRRIEELESEVRDKEMELKDLRKQSEIIPQLMSECEYVSEKLEAAERDNQNLEDKVRSLKTDIEESKYRQRHLKGELKSFLEVLDGKIDDLHDFRRGLSKLGTDN
Consider B5, for which the binding entry in assay [6] is reported as “binds”.
